Reference: patent publication US5652335A, “Physiologically active substance well capable of permeating biomembrane” (Teikoku Seiyaku Kabushiki Kaisha, priority 1990, dated 1997)

System: extirpated intestine of guinea pig
Assay: suppressing effect on shrinkage of extirpated intestine of guinea pig by electric stimulations (method of Kosterlitz)
Assay type: cell-based
Method: Adamantylated enkephalin derivatives a and b obtained in Examples 1 and 2 were examined for in vivo analgesic effect and in vitro suppressing effect to shrinkage of extirpated intestine of guinea pig by electric stimulations.
A suppressing effect for the shrinkage of extirpated intestine of guinea pig of the adamantylated enkephalin derivatives a and b was measured in accordance with the method of Kosterlitz (H. W. Kosterlitz, A. A. Watterfield, Ann. Rev. Pharmacol., 15, 29, (1975)).

## CN1CC[C@]23c4c5ccc(O)c4O[C@H]2[C@@H](O)C=C[C@H]3[C@H]1C5.Cl [Morphine hydrogen chloride]
Relative to morphine hydrogen chloride = 1.00
  Relative Potency: 1.00
Suppression of electrically stimulated shrinkage of extirpated guinea pig intestine, in vitro
  ED50 (mol) (mean ± s.e.m.): 3.2 ± 0.43 × 10^-8 mol
